Results are percentages, as filed. The controls that fix the scale are not given in the record; negative values are as filed. Compounds were drawn at random from those tested, without regard to their results.

Chains of the proteins cited; added tags and fusions are not shown.
UniProt E9BF75, entry or part of it: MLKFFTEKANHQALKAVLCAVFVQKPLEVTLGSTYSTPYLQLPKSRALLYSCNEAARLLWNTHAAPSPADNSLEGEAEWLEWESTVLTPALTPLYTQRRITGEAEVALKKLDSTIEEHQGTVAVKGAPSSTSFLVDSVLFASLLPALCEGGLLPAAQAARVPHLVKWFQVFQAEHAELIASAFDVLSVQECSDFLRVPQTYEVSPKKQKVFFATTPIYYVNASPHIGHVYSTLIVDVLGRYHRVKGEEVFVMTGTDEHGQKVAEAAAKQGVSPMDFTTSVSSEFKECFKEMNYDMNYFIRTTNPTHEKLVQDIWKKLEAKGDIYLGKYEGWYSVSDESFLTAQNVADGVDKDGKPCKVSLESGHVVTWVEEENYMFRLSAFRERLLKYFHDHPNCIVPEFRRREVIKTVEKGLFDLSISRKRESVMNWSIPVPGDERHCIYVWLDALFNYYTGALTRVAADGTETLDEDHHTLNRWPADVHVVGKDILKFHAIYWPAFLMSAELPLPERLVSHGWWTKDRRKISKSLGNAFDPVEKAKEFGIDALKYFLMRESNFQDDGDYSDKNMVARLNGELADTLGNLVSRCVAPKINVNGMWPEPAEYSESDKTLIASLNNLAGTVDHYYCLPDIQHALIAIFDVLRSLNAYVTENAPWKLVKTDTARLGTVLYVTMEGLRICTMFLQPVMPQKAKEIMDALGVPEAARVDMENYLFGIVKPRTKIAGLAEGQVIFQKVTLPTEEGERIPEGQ

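Methionyl-tRNA synthetase (putative), Leishmania donovani (UniProt E9BF75). Primary screen of methionyl-tRNA synthetase; the read-out is not stated. The test concentration is not given. Values are per cent inhibition. Size under these conditions: about 68,000 compounds, about 24 of them at 50% or above in at least one test.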

structure,Inhibition
Cc1nc(N2CCC3(CCCN(CCO)C3=O)C2)c2sccc2n1 (stereo unspecified),4.577
CCc1ccc(C(=O)N2CCCn3nnc(Cn4cccn4)c3C2)cc1,10.22
Fc1cccc(CN2CCC(c3n[nH]c4ncccc34)CC2)c1F,16.78
CC(C)Cn1cncc1-c1nc2c([nH]1)CC(C)(C)CNC2=O,1.805
Cn1cc(CN2CCCN(CCCc3ccccc3)CC2)cn1,18.26
CN(C)CCN1C(=O)CCC12CCN(Cc1cccs1)CC2,7.843
CCOCCOC(C)C(=O)Nc1ccnn1-c1ccccc1C (stereo unspecified),7.094
CN(Cc1ccc2c(c1)OCO2)C(=O)c1ccc(=O)n(C)c1,-2.338
CCn1nc(C)c2nc(C)nc(NCCc3ccccc3)c21,4.077
Cn1cnnc1C1CCN(c2nc3ccccc3o2)CC1,20.91
Cc1nc(CN(C)C2CCCN(Cc3noc(C4CC4)n3)C2)oc1C (stereo unspecified),0
CCOc1ccc(CC(=O)N2CCCC(n3nc(C)nc3C)C2)cc1 (stereo unspecified),8.832
Cc1ccccc1-c1cncc(C2CCN(C)CC2)n1,16.1
O=C1NCCN1C1CCN(CCc2cccs2)CC1,15.97
Cc1nsc(NC(=O)NC2CCOCC2)n1,1.796
CCOc1cc(CNC(=O)N2CCC(Cc3cnn(C)c3)C2)ccn1 (stereo unspecified),8.589
CCc1ccc2nc(C)cc(C(=O)NCc3csc(N(C)C)n3)c2c1,6.4
CC(C)c1noc(CN2CCC3(CCCO3)CCC2=O)n1 (stereo unspecified),13.66
CC(C)(C(=O)NCC1CCN(Cc2cccnc2)C1)c1ccccc1 (stereo unspecified),21.77
CC(C)COCC(NC(=O)c1ccccn1)c1ccco1 (stereo unspecified),15.03
COc1cc(NCCNC(=O)c2cc[nH]c2C)cc(OC)c1,1.796
CN(C)C(=O)CNC(=O)c1cc(Br)c2c(c1)OCCO2,15.61
CCc1ncc2c(n1)CN(CC(=O)Nc1cccnc1)CC2,4.335
O=C(C1=CC2(CCN(CCO)CC2)c2ccccc21)N1CCCC1,3.226
CC(C)NC1CCc2c(ccc(=O)n2CCN2CCCC2=O)C1 (stereo unspecified),14.29
CCOCC1CN(CCOc2ccc(Cl)cc2)Cc2c1cnn2C (stereo unspecified),-2.405
CC(=O)c1cccc(OCc2cc(C(=O)N3CCCCO3)n[nH]2)c1,7.759
Cc1noc([C@@]23CCO[C@@H]2CCN(C(=O)c2sccc2C)C3)n1,14.64
CC(C)S(=O)(=O)NCC1CCCN(C(=O)c2ccc3c(c2)OCCO3)C1 (stereo unspecified),7.389
CC(C)n1ncc2c1NC(=O)CC21C(=O)Nc2c(Br)cc(Cl)cc21 (stereo unspecified),13.64
NC(=O)C(NCCc1ccc(Cl)s1)c1ccccc1 (stereo unspecified),16.94
Cc1ccc(F)cc1CC(=O)N1CC[C@@]2(O)CCNC[C@H]2C1,-9.804
COCC(C)NC(=O)c1cncc(Br)c1 (stereo unspecified),-3.474
O=C1COC2(CCN(Cc3cccs3)CC2)CN1c1ccccc1,17.5
CCN(CC)C(=O)Nc1cccc(Oc2ccccn2)c1,7.427
O=C(c1ccc(O)nc1)N1CCN(C(=O)c2ccc(F)c(F)c2)CC1,8.982
CC(=O)c1ccc(CN2CC(Oc3ccccc3C)C2)cc1,17.63
CNC(=O)c1ncn2c1CN(CCC(C)C)S(=O)(=O)c1ccccc1-2,14.29
Cc1cnn(CC2CCCN2C(=O)CCc2ccsc2)c1 (stereo unspecified),15.97
CCN(CC)S(=O)(=O)N1CCCC1C(=O)N1CCSCC1 (stereo unspecified),11.98
COCC1CCN(S(=O)(=O)N2C[C@@H](C)[C@](O)(C3CC3)C2)CC1,8.014
CCCN1CCc2nc(SCc3ccc(F)cc3)[nH]c(=O)c2C1,8.609
O=C(NC[C@]1(O)CCN(Cc2ccccc2F)C[C@H]1O)c1c[nH]cn1,-0.3145
O=C1OCCN1CCSc1nnnn1C1CCOCC1,9.537
COCCC(=O)N1CCN(CCN(C)C)c2ncccc2C1,11.81
Cc1ccc(CN2CCN(CC(=O)N(C)C)[C@@H]3CS(=O)(=O)C[C@@H]32)cc1C,11.17
Cc1cnn(CC2CCCN2C(=O)Cc2ccc(C)nc2)c1 (stereo unspecified),19.77
CCc1cnc(N2C[C@@H]3[C@@H](C(=O)N(C)C)CCS(=O)(=O)[C@@H]3C2)nc1,9.971
CCN(Cc1cnn(CC)c1)C(=O)Cn1c(=O)ccc2ccccc21,3.562
CCC(=O)N1CCCC1c1csc(Nc2cnccn2)n1 (stereo unspecified),9.647
CCN(CC(=O)NC)S(=O)(=O)c1cnc2c(c1)c(C)nn2C,1.872
CS(=O)(=O)CCc1ncnn1-c1ccc(F)c(Cl)c1,11.08
c1cncc(-c2ccc3c(c2)CCC32CCN(Cc3ccco3)CC2)c1,11.78
Cc1nn(C)c(C)c1NC(=O)CNc1ccc(F)c(C(F)(F)F)c1,16.49
O=C(c1ccc(F)cc1)N1C[C@@H]2OCCN(c3ncccn3)[C@@H]2C1,17.15
Cc1cccnc1NC(=O)NCc1ccc(N2CCNC(=O)C2)cc1,50.61
CC(C)(C)[S+]([O-])CCNC(=O)c1ccc(Cl)c2cccnc12 (stereo unspecified),18.26
COCCN1CCC2(CC1)CC(NC(=O)C(C)C)c1ccccc1O2 (stereo unspecified),15.69
COc1ccc(-n2ccc(C(=O)NCCN3CCCCC3C)n2)cc1 (stereo unspecified),16.34

Once more, the final 8:

{"structure": "CS(=O)(=O)CCc1ncnn1-c1ccc(F)c(Cl)c1", "Inhibition": 11.08}
{"structure": "c1cncc(-c2ccc3c(c2)CCC32CCN(Cc3ccco3)CC2)c1", "Inhibition": 11.78}
{"structure": "Cc1nn(C)c(C)c1NC(=O)CNc1ccc(F)c(C(F)(F)F)c1", "Inhibition": 16.49}
{"structure": "O=C(c1ccc(F)cc1)N1C[C@@H]2OCCN(c3ncccn3)[C@@H]2C1", "Inhibition": 17.15}
{"structure": "Cc1cccnc1NC(=O)NCc1ccc(N2CCNC(=O)C2)cc1", "Inhibition": 50.61}
{"structure": "CC(C)(C)[S+]([O-])CCNC(=O)c1ccc(Cl)c2cccnc12", "stereo": "stereo unspecified", "Inhibition": 18.26}
{"structure": "COCCN1CCC2(CC1)CC(NC(=O)C(C)C)c1ccccc1O2", "stereo": "stereo unspecified", "Inhibition": 15.69}
{"structure": "COc1ccc(-n2ccc(C(=O)NCCN3CCCCC3C)n2)cc1", "stereo": "stereo unspecified", "Inhibition": 16.34}

From ChEMBL document CHEMBL3988442, “University of Dundee, Small-Polar-MMV Screening Library” (2021).